Measured values published in the supplement of paper PMC10849652.
Some of the results follow.

The chains behind the UniProt entries cited, without tags or fusion partners. Where a name states a change or a piece, a line headed by the entry shows the natural chain unless it says otherwise.
UniProt Q92686, whole entry, looked up: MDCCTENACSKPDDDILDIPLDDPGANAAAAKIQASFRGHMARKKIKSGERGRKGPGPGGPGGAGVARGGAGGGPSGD
UniProt Q8N5F7: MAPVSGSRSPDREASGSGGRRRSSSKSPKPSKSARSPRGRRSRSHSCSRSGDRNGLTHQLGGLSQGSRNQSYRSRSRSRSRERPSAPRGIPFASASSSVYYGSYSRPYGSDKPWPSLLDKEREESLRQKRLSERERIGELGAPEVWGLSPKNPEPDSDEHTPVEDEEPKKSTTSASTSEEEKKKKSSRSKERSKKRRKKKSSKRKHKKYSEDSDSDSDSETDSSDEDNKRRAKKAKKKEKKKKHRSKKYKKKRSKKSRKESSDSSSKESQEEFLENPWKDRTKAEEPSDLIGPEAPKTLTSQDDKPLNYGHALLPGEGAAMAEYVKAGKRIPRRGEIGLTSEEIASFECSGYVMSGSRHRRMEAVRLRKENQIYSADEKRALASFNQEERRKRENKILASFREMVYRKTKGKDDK
UniProt Q04721: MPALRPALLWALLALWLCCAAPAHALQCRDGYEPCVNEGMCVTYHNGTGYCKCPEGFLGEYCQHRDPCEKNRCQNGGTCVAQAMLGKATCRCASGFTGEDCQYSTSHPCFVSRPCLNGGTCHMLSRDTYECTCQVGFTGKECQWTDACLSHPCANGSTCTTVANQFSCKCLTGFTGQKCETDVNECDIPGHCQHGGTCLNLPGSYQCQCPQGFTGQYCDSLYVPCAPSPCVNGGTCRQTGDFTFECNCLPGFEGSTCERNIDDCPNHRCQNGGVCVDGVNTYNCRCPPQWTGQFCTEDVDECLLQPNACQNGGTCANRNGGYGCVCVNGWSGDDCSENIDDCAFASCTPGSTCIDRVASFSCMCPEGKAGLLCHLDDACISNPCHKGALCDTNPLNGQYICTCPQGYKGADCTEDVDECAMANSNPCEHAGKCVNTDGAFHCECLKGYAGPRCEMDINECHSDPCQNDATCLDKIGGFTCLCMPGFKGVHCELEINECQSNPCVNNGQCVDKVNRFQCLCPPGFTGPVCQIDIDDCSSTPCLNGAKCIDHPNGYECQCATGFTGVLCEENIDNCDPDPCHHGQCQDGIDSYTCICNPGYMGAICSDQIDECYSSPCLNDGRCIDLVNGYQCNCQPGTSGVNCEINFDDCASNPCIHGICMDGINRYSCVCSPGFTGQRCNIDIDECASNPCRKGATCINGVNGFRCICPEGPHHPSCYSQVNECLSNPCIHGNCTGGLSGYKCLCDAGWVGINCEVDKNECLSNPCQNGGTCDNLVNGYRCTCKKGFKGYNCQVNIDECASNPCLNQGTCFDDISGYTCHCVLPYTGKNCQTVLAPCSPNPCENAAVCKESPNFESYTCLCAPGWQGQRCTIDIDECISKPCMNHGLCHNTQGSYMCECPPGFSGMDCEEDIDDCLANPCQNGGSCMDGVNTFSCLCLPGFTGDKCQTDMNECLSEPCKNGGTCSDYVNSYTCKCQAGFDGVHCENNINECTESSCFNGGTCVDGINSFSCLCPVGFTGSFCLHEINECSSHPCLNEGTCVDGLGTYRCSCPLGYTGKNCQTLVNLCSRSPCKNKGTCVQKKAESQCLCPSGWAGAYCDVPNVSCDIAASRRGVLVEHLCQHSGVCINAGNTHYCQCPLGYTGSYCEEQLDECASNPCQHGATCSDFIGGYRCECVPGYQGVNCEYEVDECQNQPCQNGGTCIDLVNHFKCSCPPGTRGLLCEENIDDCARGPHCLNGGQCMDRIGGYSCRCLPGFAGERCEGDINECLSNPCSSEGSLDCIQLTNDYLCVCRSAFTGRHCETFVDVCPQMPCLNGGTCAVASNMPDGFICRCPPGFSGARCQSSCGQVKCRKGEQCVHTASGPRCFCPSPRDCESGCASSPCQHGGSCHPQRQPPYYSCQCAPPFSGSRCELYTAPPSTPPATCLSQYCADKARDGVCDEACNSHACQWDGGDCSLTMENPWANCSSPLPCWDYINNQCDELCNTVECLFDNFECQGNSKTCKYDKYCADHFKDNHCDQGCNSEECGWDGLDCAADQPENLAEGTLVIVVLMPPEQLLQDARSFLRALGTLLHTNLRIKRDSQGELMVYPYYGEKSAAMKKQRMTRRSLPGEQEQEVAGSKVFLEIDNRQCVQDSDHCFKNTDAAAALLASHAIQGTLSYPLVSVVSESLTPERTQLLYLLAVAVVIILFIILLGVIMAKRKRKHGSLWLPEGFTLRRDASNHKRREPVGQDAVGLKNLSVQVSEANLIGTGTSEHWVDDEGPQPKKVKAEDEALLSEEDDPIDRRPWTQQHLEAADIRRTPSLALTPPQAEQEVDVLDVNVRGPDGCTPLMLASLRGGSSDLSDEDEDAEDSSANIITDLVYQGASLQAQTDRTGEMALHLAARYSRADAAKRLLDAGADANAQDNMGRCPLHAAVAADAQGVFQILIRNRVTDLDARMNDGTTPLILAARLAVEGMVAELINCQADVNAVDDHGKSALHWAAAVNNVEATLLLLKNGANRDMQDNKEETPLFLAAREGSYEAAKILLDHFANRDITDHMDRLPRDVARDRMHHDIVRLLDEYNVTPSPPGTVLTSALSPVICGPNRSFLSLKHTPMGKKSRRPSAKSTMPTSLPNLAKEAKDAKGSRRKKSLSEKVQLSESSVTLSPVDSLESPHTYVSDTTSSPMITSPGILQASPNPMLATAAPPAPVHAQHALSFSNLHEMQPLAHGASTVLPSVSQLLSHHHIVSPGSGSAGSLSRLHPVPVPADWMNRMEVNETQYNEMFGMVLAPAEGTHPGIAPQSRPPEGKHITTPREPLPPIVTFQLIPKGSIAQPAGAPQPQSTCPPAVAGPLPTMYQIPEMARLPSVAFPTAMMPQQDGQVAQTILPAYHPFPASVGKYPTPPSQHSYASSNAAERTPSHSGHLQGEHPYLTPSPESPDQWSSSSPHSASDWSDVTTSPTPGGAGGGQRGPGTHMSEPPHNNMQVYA
UniProt O00746: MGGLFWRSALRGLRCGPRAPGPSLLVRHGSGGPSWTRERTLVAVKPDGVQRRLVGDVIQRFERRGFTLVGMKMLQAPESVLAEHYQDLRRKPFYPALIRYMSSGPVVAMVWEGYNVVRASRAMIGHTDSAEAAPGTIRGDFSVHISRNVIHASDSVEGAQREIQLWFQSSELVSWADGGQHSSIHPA
UniProt Q8IXH7, whole entry, looked up: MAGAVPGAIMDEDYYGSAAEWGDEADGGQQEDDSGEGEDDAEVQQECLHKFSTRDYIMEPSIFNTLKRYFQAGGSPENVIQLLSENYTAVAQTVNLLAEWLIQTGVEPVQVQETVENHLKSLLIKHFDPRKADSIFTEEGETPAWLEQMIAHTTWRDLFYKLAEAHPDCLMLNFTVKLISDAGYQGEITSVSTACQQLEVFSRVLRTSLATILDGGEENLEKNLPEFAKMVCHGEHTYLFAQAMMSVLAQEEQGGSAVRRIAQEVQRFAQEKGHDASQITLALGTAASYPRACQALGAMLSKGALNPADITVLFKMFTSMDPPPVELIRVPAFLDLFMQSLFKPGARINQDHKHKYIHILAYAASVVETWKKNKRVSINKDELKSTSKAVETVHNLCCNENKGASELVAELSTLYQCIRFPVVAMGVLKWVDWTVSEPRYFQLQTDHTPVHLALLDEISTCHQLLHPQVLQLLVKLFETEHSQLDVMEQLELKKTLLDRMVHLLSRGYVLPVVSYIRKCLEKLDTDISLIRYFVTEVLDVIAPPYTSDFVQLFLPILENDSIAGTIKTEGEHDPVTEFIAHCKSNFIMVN
UniProt Q00653: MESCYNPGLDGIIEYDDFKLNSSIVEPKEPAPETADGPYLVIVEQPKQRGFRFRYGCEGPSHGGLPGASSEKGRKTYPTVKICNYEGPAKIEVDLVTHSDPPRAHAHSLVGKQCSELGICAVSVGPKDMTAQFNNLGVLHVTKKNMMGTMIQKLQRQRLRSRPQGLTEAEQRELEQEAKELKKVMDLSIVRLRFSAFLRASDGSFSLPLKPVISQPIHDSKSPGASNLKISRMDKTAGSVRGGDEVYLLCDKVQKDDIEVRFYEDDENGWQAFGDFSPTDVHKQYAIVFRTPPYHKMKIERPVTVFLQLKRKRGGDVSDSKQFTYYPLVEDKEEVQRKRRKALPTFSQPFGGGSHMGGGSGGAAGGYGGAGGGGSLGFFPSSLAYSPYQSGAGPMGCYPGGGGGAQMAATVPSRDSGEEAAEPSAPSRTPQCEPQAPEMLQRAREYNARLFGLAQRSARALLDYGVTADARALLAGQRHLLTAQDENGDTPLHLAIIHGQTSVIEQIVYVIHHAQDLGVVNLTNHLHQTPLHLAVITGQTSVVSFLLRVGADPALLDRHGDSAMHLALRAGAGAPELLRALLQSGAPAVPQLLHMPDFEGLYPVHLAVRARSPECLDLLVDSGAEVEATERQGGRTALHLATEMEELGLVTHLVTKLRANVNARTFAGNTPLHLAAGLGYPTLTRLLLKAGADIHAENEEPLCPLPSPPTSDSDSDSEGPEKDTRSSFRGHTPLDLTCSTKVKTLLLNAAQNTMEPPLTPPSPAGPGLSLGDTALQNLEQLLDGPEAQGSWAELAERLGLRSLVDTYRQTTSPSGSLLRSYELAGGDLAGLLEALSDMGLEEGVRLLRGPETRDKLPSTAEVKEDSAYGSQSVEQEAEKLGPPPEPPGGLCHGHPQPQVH
UniProt O60361, whole entry, looked up: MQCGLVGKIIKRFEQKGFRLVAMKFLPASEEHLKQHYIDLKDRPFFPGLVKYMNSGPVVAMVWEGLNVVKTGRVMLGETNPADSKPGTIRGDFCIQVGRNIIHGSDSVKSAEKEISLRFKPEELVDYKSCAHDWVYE
UniProt Q86YC3: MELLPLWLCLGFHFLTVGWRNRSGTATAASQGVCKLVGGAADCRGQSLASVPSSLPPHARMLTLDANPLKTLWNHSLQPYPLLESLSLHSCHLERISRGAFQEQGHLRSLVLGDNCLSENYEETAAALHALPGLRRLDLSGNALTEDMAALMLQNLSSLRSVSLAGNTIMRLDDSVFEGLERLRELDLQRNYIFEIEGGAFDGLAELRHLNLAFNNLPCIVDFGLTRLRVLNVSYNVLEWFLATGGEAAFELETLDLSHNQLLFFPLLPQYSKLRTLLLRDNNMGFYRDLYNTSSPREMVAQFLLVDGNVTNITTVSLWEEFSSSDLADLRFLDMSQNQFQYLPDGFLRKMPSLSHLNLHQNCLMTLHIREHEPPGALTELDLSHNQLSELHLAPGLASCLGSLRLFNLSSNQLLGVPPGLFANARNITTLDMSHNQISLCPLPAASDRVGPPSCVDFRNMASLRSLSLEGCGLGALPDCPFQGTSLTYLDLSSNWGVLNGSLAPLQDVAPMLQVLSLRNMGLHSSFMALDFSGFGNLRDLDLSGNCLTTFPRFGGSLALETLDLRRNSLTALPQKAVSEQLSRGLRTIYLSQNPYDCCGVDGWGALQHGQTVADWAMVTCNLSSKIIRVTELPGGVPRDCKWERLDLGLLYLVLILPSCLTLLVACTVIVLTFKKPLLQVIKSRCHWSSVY
UniProt Q9UQ49: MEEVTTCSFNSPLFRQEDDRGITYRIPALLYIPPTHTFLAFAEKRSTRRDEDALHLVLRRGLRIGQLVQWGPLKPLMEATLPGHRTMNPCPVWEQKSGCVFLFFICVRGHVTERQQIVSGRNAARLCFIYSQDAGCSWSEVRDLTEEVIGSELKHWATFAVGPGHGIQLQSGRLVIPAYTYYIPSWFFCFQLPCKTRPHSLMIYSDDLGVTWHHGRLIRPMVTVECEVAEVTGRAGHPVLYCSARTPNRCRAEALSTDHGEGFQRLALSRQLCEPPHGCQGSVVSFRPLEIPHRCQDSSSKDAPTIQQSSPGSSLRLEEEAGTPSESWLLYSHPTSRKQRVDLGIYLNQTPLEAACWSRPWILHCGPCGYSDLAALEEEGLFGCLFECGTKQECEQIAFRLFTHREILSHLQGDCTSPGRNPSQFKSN
UniProt Q9NYR9: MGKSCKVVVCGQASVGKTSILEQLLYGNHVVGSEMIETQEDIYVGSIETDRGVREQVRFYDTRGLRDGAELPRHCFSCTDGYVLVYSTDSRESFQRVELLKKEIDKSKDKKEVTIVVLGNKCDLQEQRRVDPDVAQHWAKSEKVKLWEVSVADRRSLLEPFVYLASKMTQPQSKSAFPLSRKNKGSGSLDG
UniProt Q8IVI9: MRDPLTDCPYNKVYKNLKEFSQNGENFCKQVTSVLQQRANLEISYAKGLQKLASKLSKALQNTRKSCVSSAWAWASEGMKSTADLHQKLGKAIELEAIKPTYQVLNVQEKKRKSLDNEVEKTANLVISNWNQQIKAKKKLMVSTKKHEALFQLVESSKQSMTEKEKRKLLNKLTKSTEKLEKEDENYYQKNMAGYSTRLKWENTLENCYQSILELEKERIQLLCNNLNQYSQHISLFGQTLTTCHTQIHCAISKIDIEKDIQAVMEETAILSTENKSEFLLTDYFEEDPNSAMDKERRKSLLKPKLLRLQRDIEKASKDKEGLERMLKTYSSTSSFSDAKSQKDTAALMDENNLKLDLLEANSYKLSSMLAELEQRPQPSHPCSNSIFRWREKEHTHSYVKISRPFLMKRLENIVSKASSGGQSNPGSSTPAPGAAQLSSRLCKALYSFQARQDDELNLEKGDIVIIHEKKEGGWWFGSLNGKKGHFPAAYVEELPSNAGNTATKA

Experiments:
Assay in all cases: log2 fold change, soluble protein after heating vs DMSO (PISA); higher = thermal stabilisation; K562 cells, 10 uM, 30 min; active = over 0.2 and 3.5 SD of the protein, either way, in both replicates (recomputed)
[1] = compound: CNC(=O)C1=CC=CC=C1NC2=NC(=NC=C2Cl)NC3=C(C=C(C=C3)N4CCOCC4)OC
Summary of the method: (§1)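 K562 cells at 2×10^6 cells/mL were treated for 30 min with 10 μM compound, and aliquots were heated for 3 min over 48°C-58°C before pooling. Extraction used PBS with 0.5% NP-40 at 4°C, and soluble protein was the supernatant after 21,000xg for 90 min, measured by TMTpro 16plex LC-MS/MS with channel sums equalised. Thermal stability values, relative to control samples and from duplicates, are log2 fold changes.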

[2] = compound: COC1=CC=C(C=C1)CN2C=CC3=C2C=C(C=C3)C(=O)NO
Summary of the method: as §1

idasanutlin = compound: COc1cc(C(=O)O)ccc1NC(=O)[C@@H]1N[C@@H](CC(C)(C)C)[C@](C#N)(c2ccc(Cl)cc2F)[C@H]1c1cccc(Cl)c1F [idasanutlin]
Summary of the method: as §1

[3] = compound: COc1cc2nc(-c3cc(F)ccc3O)nc(N[C@@H]3CNC[C@H]3C(C)(C)O)c2cc1OC
Summary of the method: as §1

gefitinib = compound: COc1cc2ncnc(Nc3ccc(F)c(Cl)c3)c2cc1OCCCN1CCOCC1 [gefitinib]
Summary of the method: as §1

lapatinib = compound: CS(=O)(=O)CCNCc1ccc(-c2ccc3ncnc(Nc4ccc(OCc5cccc(F)c5)c(Cl)c4)c3c2)o1 [lapatinib]
Summary of the method: as §1

pictilisib = compound: CS(=O)(=O)N1CCN(Cc2cc3nc(-c4cccc5[nH]ncc45)nc(N4CCOCC4)c3s2)CC1 [pictilisib]
Summary of the method: as §1

alisertib = compound: COc1cc(Nc2ncc3c(n2)-c2ccc(Cl)cc2C(c2c(F)cccc2OC)=NC3)ccc1C(=O)O [alisertib]
Summary of the method: as §1

[4] = compound: COc1cccc2cc(-c3nc([C@H]4CC[C@H](C(=O)O)CC4)n4ncnc(N)c34)[nH]c12
Summary of the method: as §1

sotrastaurin = compound: CN1CCN(c2nc(C3=C(c4c[nH]c5ccccc45)C(=O)NC3=O)c3ccccc3n2)CC1 [sotrastaurin]
Summary of the method: as §1

alvocidib = compound: CN1CC[C@H](c2c(O)cc(O)c3c(=O)cc(-c4ccccc4Cl)oc23)[C@H](O)C1 [alvocidib]
Summary of the method: as §1

Tubastatin A = compound: CN1CCc2c(c3ccccc3n2Cc2ccc(C(=O)NO)cc2)C1 [Tubastatin A]
Summary of the method: as §1

defactinib = compound: CNC(=O)c1ccc(Nc2ncc(C(F)(F)F)c(NCc3nccnc3N(C)S(C)(=O)=O)n2)cc1 [defactinib]
Summary of the method: as §1

rucaparib = compound: CNCc1ccc(-c2[nH]c3cc(F)cc4c3c2CCNC4=O)cc1 [rucaparib]
Summary of the method: as §1

encorafenib = compound: COC(=O)N[C@@H](C)CNc1nccc(-c2cn(C(C)C)nc2-c2cc(Cl)cc(NS(C)(=O)=O)c2F)n1 [encorafenib]
Summary of the method: as §1

[5] = compound: COC(=O)[C@H](CCSC)NC(=O)C1=C(C=C(C=C1)NC[C@H](CS)N)C2=CC=CC=C2
Summary of the method: as §1

filanesib = compound: CON(C)C(=O)N1N=C(c2cc(F)ccc2F)S[C@@]1(CCCN)c1ccccc1 [filanesib]
Summary of the method: as §1

zotarolimus = compound: CO[C@H]1C[C@@H]2CC[C@@H](C)[C@@](O)(O2)C(=O)C(=O)N2CCCC[C@H]2C(=O)O[C@H]([C@H](C)C[C@@H]2CC[C@H](n3cnnn3)[C@H](OC)C2)CC(=O)[C@H](C)/C=C(\C)[C@@H](O)[C@@H](OC)C(=O)[C@H](C)C[C@H](C)/C=C/C=C/C=C/1C [zotarolimus]
Summary of the method: as §1

saracatinib = compound: CN1CCN(CCOc2cc(OC3CCOCC3)c3c(Nc4c(Cl)ccc5c4OCO5)ncnc3c2)CC1 [saracatinib]
Summary of the method: as §1

[6] = compound: CNc1nc(-c2ccc3c(N)n[nH]c3c2)cc(N2C[C@@H](C(=O)NC3CCCCC3)CC[C@H]2C)n1
Summary of the method: as §1

Measured: log2 fold change

NRGN (UniProt Q92686)
inactive: [1] 0.01 | [2] -0.831 | idasanutlin 0.023 | [3] -0.108 | gefitinib -0.012 | lapatinib 0.107 | pictilisib 0.404

NOC3L (UniProt Q8WTT2)
inactive: idasanutlin 0.011 | alisertib 0.226 | gefitinib 0.027 | [4] 0.414 | pictilisib 0.192

NRM (UniProt Q8IXM6)
inactive: sotrastaurin 0.091 | alvocidib -0.011 | Tubastatin A -0.015 | [1] -0.031 | defactinib 0.059 | rucaparib -0.041 | encorafenib 0 | [5] 0.053 | filanesib 0.081 | zotarolimus -0.052 | idasanutlin -0.039 | alisertib 0.012 | [3] -0.229 | gefitinib 0.039 | [4] 0.081 | lapatinib -0.03 | pictilisib 0.113

NSA2 (UniProt O95478)
inactive: pictilisib -0.216

NIPBL (UniProt Q6KC79)
inactive: Tubastatin A 0.022 | [1] -0.015 | rucaparib 0.008 | encorafenib 0.133 | [2] 0.069 | idasanutlin 0.069 | [3] -0.056 | lapatinib 0.027

NKAP (UniProt Q8N5F7)
inactive: saracatinib 0.067 | Tubastatin A 0.093 | [1] -0.296 | defactinib 0.092 | rucaparib 0.055 | [6] 0.085 | encorafenib 0.149 | [5] 0.039 | [2] -0.005 | zotarolimus 0.112 | idasanutlin 0.115 | alisertib 0.037 | [3] -0.051 | gefitinib -0.029 | [4] -0.13 | lapatinib 0.09 | pictilisib -0.013

NGDN (UniProt Q8NEJ9)
inactive: sotrastaurin 0.142 | alvocidib 0.052 | Tubastatin A 0.033 | filanesib -0.302 | zotarolimus 0.044

NOTCH2 (UniProt Q04721)
inactive: Tubastatin A -0.02 | [1] 0.136 | idasanutlin -0.102

NFIC isoform 6 (UniProt P08651)
inactive: defactinib 0.162 | [5] -0.186

NMRK1 (UniProt Q9NWW6)
inactive: saracatinib -0.017 | [1] -0.164 | [6] -0.22

NFE2L1 (UniProt Q14494)
inactive: alvocidib 0.017 | Tubastatin A 0.393 | [1] -0.154 | defactinib -0.088 | [5] 0.094 | [2] 0.271 | zotarolimus -0.341 | [3] 0.051 | lapatinib 0.025 | pictilisib 0.176

NOL8 (UniProt Q76FK4)
inactive: saracatinib 0.105 | [6] -0.271 | [3] -0.031 | lapatinib -0.059 | pictilisib 0.158

NOTCH1 (UniProt P46531)
inactive: gefitinib 0.063

NIPSNAP2 (UniProt C9J7B1)
inactive: sotrastaurin -0.073 | filanesib 0.05 | idasanutlin -0.38 | alisertib -0.041 | [4] -0.047

NMU (UniProt P48645)
inactive: saracatinib -0.017 | Tubastatin A 0.149 | [1] -0.055 | defactinib -0.08 | rucaparib -0.076 | [6] -0.09 | encorafenib 0.034 | [5] -0.042 | [2] 0.259 | zotarolimus -0.018 | idasanutlin 0.057 | [3] -0.156 | gefitinib 0.162 | lapatinib -0.047 | pictilisib -0.3

NR3C1 isoform 3 (UniProt P04150)
inactive: saracatinib -0.053 | alvocidib -0.059 | Tubastatin A -0.071 | [1] -0.065 | rucaparib 0.065 | [6] 0.045 | encorafenib -0.298 | [2] -0.123 | zotarolimus -0.032 | idasanutlin -0.008 | alisertib 0.078 | [3] -0.016 | gefitinib 0.04 | [4] 0.085

NME4 (UniProt O00746)
inactive: [1] -0.004 | rucaparib -0.025 | encorafenib 0.032 | alisertib -0.076 | [4] 0.16 | pictilisib -0.036

NRBP2 (UniProt Q9NSY0)
inactive: [1] -0.012 | [2] -0.025

NOLC1 isoform 3 (UniProt Q14978)
inactive: [1] 0.018 | zotarolimus -0.013

NELFCD (UniProt Q8IXH7)
inactive: saracatinib -0.114 | [1] 0.024 | defactinib -0.228 | [6] -0.002 | [5] -0.085 | [2] 0.006 | zotarolimus -0.071 | idasanutlin 0 | [3] 0.179 | gefitinib -0.052 | lapatinib -0.006 | pictilisib -0.061

NOMO3 (UniProt P69849)
inactive: sotrastaurin 0.025 | [1] 0.062 | [2] -0.203 | filanesib 0.221

NFKB2 (UniProt Q00653)
inactive: alvocidib -0.023 | Tubastatin A -0.023 | rucaparib 0.011 | encorafenib 0.023 | [2] -0.074 | zotarolimus -0.01 | idasanutlin 0.015 | alisertib -0.118 | [3] 0.023 | gefitinib 0 | [4] -0.024 | lapatinib 0.01

NOC4L (UniProt Q9BVI4)
inactive: gefitinib -0.13 | pictilisib 0.022

NEO1 (UniProt Q92859)
inactive: Tubastatin A 0.17 | defactinib -0.071 | rucaparib 0.411 | encorafenib -0.389 | [5] -0.005 | idasanutlin 0.128 | alisertib 0.168 | gefitinib 0.004 | [4] 0.13

NETO2 (UniProt Q8NC67)
inactive: defactinib -0.082 | [5] 0.345

NME2P1 (UniProt O60361)
active: rucaparib -0.814
inactive: sotrastaurin 0.057 | Tubastatin A 0.059 | [1] -0.145 | defactinib 0.034 | encorafenib 0.003 | [5] -0.017 | [2] -0.256 | filanesib 0.058 | zotarolimus -0.111 | idasanutlin -0.367 | alisertib -0.089 | [3] 0.122 | gefitinib -0.01 | [4] 0.084 | lapatinib -0.075 | pictilisib -0.041

NMNAT3 (UniProt Q96T66)
inactive: saracatinib -0.043 | sotrastaurin 0.212 | [1] -0.077 | rucaparib 0.032 | [6] -0.105 | encorafenib -0.008 | filanesib -0.211 | alisertib 0.443 | [3] 0.054 | [4] -0.197 | lapatinib -0.023

NPRL3 (UniProt Q12980)
inactive: saracatinib 0.138 | [1] 0.094 | [6] -0.036

NOL9 (UniProt Q5SY16)
inactive: [1] 0.067

NRIP3 (UniProt Q9NQ35)
inactive: sotrastaurin 0.25 | filanesib -0.233 | idasanutlin 0.089

NLRX1 (UniProt Q86UT6)
inactive: sotrastaurin -0.196 | Tubastatin A 0.076 | [1] 0.16 | [2] -0.206 | filanesib 0.141 | [3] -0.161 | gefitinib -0.049 | lapatinib 0.003

NRROS (UniProt Q86YC3)
inactive: [3] 0.091 | gefitinib -0.001 | lapatinib -0.024 | pictilisib 0.085

NEU3 isoform 2 (UniProt Q9UQ49)
inactive: sotrastaurin 0.004 | [1] 0.091 | filanesib -0.286 | [3] 0.301 | lapatinib -0.126

NKTR (UniProt P30414)
inactive: alisertib 0.064 | [3] 0.295 | [4] 0.109 | lapatinib -0.173
active: [1] 0.939

NKIRAS2 (UniProt Q9NYR9)
inactive: sotrastaurin 0.013 | Tubastatin A 0.11 | [1] 0 | [2] 0.009 | filanesib 0.124 | alisertib -0.077 | gefitinib 0.043 | [4] -0.007

NOS1AP (UniProt O75052)
inactive: Tubastatin A -0.112 | [1] -0.089 | defactinib 0.193 | rucaparib -0.403 | encorafenib 0.092 | [5] -0.074 | zotarolimus -0.098 | alisertib 0.353 | [3] -0.09 | [4] -0.118 | lapatinib -0.1

NOP10 (UniProt Q9NPE3)
inactive: saracatinib -0.137 | alvocidib 0.083 | [1] -0.103 | [6] -0.189 | [2] 0.122 | zotarolimus 0.023 | alisertib 0.119 | [3] -0.005 | gefitinib -0.045 | [4] 0.13 | lapatinib 0.033

NOSTRIN isoform 4 (UniProt Q8IVI9)
inactive: sotrastaurin -0.291 | [1] 0.114 | rucaparib 0.209 | encorafenib 0.278 | filanesib 0.309 | idasanutlin -0.005 | alisertib -0.183 | gefitinib 0.08 | [4] -0.272

NFATC1 (UniProt O95644)
inactive: sotrastaurin -0.204 | defactinib -0.05 | rucaparib 0.086 | encorafenib 0.115 | [5] 0.108 | filanesib -0.109 | alisertib -0.008 | [3] -0.019 | [4] 0.127 | lapatinib -0.037

Quoted from the listing (2 entries):
NOP10 (UniProt Q9NPE3)
inactive: saracatinib -0.137 | alvocidib 0.083 | [1] -0.103 | [6] -0.189 | [2] 0.122 | zotarolimus 0.023 | alisertib 0.119 | [3] -0.005 | gefitinib -0.045 | [4] 0.13 | lapatinib 0.033

NOSTRIN isoform 4 (UniProt Q8IVI9)
inactive: sotrastaurin -0.291 | [1] 0.114 | rucaparib 0.209 | encorafenib 0.278 | filanesib 0.309 | idasanutlin -0.005 | alisertib -0.183 | gefitinib 0.08 | [4] -0.272
